Measured values published in patent US20130243802A1.

How the values were obtained:
[1] = molecular target: recombinant Arthrobacter davidanieli HSP70 (Arthrobacter davidanieli); test: CHIEF gel
[2] = molecular target: recombinant Arthrobacter davidanieli HSP70 (Arthrobacter davidanieli); test: CHIEF gel, 80 µg of peptide against 10 to 1.25 µg of adHSP70
[3] = molecular target: recombinant human HSP70 (human); test: CHIEF gel, 1 µg of recombinant HSP70 against 15 µg of peptide
[4] = molecular target: recombinant rat HSP70 (rat); test: as above

Measured: binding

B1: MBP100-117_WT1 117-134 (peptide)
peptide: PSQGKGRGLSLSRFSWGAPSQASSGQARMFPNAPYL
binds: all assays above

These are yes or no findings as the source states them, for the method shown. Binding can be weak; no strength is given. Sequences can lack the tags named with a protein.
